This data set deals with 6 Hz (32 mA) psychomotor seizures. Description: 6 Hz psychomotor seizure test, 32 mA (incl. TPE determination). It counts as in vivo, mice. To be noted: time of peak effect determined in 32 mA 6 Hz test. How it is done:
Test compounds were administered using an optimal fluid volume to body fluid ratio. Test compounds were administered to mice in a volume of 0.01 mL/g of body weight (White H. S., et al., General Principles: Experimental selection, quantification, and evaluation of antiepileptic drugs, in Antiepileptic Drugs, Fourth Edition, […], and B. S. Meldrum, Editors. 1995, Raven Press, Ltd.: New York, pp. 99-110). For subcutaneous (s.c.) administration, the test compounds were administered into a loose fold of skin along the back of the animal except compound 6-b, which was administered orally (p.o). […] The animals were maintained on an adequate diet (Prolab RMH 3000) and allowed free access to food and water, except during the short time they were removed from their cage for testing. Animals newly received in the laboratory were allowed sufficient time to correct for possible food and water restriction incurred during transit before being employed in testing. All mice were housed in plastic cages in specially constructed rooms with controlled humidity, exchange of air and controlled lighting (12 hours on-12 hours off). The animals were housed, fed, and handled in a manner consistent with the recommendations in the National Council Publication, “Guide for the Care and Use of Laboratory Animals”. In the determination of an ED50 or TD50 for each test compound, the first dose administered is usually the same dose as that used in a successful TPE determination. […] Third and fourth doses were selected to produce an evenly spaced dose response line. […] TPE was determined using the 6 Hz (32 mA) assay. […] The 6 Hz seizure test is used as a model of pharmacoresistant limbic seizures. […] Focal seizures were induced in mice via corneal stimulation (6 Hz, 0.2 msec rectangular pulse, 3 sec duration; Barton et al. 2001). Mice were tested at either 32 mA or 44 mA. […] The seizures that arise from corneal stimulation in this assay are characterized by a minimal clonic phase followed by stereotyped automatistic behaviors including stun, forelimb clonus, twitching of the vibrissae, and Straub-tail. Animals not displaying these behaviors were considered protected.

Turning to `FC(F)(F)Cc1nnc2c(Cl)c(N3CCC(F)(c4ccccc4)CC3)ccn12` [Co. No. 11], for the setting “s.c.”, the “TPE” value turned out to be 0.5 h.
As for `N[C@@]1(C(=O)O)CS(=O)(=O)[C@H]2[C@H](C(=O)O)[C@H]21` [LY-404039, reference compound], under “s.c.”, the “TPE” value came out at 0.5 h. The “TPE (h)” value (s.c., listed as LY404039) was “A time-to-peak effect of 0.5 h was determined in the 32 mA 6 Hz test (s.c.) and used for 6 Hz (32 mA and 44 mA) studies”.
As for `CCCCn1ccc(N2CCC(c3ccccc3)CC2)c(Cl)c1=O` [Co. No. 2-a], where the note is “s.c.”, the “TPE (h)” value was “A time-to-peak effect of 0.5 h was determined in the 32 mA 6 Hz test (s.c.) and used for 6 Hz (32 mA and 44 mA) studies”. Further, the “TPE” value (s.c., listed as 2-a) is given as 0.5 h.
With `Fc1ccc(N2CCN(Cc3ccn4c(CC5CC5)nnc4c3C(F)(F)F)CC2)c(F)c1` [Co. No. 1], for the setting “s.c.”, the “TPE (h)” value is “previously determined to be 0.5 h (results shown above in table”. Under “s.c., listed as 1”, the “TPE” value came out at 0.5 h.
`FC(F)(F)c1c(N2CCC(c3ccccc3)CC2)ccn2c(CC3CC3)nnc12` [Co. No. 2]: the “TPE” value (s.c.) is 0.25 h.
As to `C[C@H](Oc1ccc(F)cc1F)c1ccn2c(CC3CC3)nnc2c1C(F)(F)F` [Co. No. 6-b, 3-(Cyclopropylmethyl)-7-[(1S)-1-(2,4-difluorophenoxy)ethyl]-8-(trifluoromethyl)[1,2,4]triazolo[4,3-a]pyridine], for the setting “p.o.”, the “TPE (h)” value is listed as “TPE determined to be 0.5 h”. In addition, the “TPE” value (p.o., listed as 6-b) is on record as 0.5 h.
`CCCCn1ccc(N2CCC(c3ccc(F)cc3F)CC2)c(Cl)c1=O` [Co. No. 25-a]: the “TPE (h)” value (s.c.) is on record as “^aThe time-to-peak effect in the 6 Hz 32 mA assay for Co. No. 25-a was determined to be 0.25 h (see Table 1)”. For the same compound, under “s.c., listed as 25-a”, the “TPE” value amounted to 1 h.
